± gives the standard deviation of the averaged measurements. The list shows a part of the results, in another mix than the full data.
Compound: Nc1ncnc2c1ncn2[C@@H]1O[C@H](COP(=O)(O)OP(=O)(O)OP(=O)(O)O)[C@@H](O)[C@H]1O [adenosine triphosphate]
Test: NP40-soluble protein abundance relative to vehicle (solubility fold change) (ratio); higher = more soluble protein in presence of ATP
How it was run: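 Jurkat crude lysate (Dounce-homogenised) was treated with eight concentrations from 0.1 to 10 mM for 10 min at room temperature, then 3 min at 37 °C. It was solubilised with 0.8% NP40 and benzonase (60 min, 4 °C) and ultracentrifuged, and the supernatant was TMT-labelled for LC-MS/MS. Intensities were vsn-normalised, and the value is the fold change against the NP40-processed vehicle per replicate, from three independent experiments.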

Protein sequences, listed by entry. Tags and fused reporters are not part of them. Lines headed by an entry give the natural chain unless they say otherwise; changes in a name come on top.
UniProt A2RUS2: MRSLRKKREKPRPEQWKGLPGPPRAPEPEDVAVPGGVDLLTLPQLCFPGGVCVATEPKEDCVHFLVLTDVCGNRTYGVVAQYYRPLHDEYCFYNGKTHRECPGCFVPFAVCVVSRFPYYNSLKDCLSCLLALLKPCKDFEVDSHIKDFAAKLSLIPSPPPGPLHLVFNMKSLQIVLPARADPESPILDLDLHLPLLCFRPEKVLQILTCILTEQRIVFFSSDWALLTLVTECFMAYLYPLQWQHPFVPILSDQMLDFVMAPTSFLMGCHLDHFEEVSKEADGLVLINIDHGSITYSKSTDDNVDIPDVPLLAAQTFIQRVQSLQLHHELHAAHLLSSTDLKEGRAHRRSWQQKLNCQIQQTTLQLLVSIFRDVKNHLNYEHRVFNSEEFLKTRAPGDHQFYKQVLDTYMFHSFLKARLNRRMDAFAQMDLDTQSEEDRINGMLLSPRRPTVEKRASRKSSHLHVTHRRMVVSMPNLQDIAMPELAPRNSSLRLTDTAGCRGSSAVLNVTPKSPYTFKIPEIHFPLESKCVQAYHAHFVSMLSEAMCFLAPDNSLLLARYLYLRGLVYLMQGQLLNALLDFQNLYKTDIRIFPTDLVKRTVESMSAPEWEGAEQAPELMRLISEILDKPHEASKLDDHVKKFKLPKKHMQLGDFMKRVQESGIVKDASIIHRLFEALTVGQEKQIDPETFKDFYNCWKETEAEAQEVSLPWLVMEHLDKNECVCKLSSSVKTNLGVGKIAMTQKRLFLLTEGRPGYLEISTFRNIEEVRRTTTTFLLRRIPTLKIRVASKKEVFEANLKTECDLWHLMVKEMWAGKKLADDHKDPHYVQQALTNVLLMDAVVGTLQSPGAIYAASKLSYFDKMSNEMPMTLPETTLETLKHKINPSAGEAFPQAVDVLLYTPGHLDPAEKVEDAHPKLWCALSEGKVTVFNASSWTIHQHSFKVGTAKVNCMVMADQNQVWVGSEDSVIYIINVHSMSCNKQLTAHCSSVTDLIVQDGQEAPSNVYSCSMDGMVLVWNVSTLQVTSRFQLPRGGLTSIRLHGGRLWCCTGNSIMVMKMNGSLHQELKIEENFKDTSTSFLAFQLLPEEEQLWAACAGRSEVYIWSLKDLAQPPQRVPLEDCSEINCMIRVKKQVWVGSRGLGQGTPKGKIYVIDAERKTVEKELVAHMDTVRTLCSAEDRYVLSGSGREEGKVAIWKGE
UniProt Q9NUJ3: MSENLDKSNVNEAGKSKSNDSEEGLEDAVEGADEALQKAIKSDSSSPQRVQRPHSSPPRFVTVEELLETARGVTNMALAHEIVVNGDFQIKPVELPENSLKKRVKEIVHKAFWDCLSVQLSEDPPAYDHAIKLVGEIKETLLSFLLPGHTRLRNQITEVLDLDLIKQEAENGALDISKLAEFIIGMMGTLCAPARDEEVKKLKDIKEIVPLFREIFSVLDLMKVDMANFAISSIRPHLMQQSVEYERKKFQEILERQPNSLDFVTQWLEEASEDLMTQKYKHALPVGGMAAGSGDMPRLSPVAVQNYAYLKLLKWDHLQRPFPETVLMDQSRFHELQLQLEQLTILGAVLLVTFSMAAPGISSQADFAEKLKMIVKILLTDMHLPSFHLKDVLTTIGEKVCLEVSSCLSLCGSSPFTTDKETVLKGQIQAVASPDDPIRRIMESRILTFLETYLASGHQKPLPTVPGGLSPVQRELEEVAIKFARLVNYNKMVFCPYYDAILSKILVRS
UniProt Q9Y2W6: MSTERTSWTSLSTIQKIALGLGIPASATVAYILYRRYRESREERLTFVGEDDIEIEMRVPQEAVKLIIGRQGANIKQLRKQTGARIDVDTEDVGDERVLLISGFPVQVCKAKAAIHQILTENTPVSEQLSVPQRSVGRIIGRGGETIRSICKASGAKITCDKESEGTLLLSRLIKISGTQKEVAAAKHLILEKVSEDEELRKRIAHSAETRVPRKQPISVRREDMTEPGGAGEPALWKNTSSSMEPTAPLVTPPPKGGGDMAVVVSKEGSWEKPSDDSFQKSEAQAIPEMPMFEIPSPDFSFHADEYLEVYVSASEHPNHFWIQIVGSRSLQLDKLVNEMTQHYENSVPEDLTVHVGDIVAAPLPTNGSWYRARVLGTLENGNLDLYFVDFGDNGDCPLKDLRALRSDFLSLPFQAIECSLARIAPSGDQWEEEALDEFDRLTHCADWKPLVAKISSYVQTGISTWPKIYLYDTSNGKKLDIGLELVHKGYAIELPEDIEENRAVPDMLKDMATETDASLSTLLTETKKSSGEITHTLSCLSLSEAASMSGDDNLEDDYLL
UniProt P17987, whole entry: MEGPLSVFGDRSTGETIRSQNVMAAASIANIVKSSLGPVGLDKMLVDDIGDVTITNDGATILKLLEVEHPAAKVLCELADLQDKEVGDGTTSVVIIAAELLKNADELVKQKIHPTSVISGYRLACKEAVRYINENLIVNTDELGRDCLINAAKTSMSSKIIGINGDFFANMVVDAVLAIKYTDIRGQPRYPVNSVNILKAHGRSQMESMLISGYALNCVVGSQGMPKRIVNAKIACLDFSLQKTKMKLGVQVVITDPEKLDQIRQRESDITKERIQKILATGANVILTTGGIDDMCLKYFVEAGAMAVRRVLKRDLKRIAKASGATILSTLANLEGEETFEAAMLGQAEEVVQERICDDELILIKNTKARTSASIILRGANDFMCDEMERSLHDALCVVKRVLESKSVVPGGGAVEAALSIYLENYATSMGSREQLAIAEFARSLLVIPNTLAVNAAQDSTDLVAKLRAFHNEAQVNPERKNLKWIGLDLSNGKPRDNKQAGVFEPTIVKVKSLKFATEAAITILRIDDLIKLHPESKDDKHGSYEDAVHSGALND
UniProt Q7Z589: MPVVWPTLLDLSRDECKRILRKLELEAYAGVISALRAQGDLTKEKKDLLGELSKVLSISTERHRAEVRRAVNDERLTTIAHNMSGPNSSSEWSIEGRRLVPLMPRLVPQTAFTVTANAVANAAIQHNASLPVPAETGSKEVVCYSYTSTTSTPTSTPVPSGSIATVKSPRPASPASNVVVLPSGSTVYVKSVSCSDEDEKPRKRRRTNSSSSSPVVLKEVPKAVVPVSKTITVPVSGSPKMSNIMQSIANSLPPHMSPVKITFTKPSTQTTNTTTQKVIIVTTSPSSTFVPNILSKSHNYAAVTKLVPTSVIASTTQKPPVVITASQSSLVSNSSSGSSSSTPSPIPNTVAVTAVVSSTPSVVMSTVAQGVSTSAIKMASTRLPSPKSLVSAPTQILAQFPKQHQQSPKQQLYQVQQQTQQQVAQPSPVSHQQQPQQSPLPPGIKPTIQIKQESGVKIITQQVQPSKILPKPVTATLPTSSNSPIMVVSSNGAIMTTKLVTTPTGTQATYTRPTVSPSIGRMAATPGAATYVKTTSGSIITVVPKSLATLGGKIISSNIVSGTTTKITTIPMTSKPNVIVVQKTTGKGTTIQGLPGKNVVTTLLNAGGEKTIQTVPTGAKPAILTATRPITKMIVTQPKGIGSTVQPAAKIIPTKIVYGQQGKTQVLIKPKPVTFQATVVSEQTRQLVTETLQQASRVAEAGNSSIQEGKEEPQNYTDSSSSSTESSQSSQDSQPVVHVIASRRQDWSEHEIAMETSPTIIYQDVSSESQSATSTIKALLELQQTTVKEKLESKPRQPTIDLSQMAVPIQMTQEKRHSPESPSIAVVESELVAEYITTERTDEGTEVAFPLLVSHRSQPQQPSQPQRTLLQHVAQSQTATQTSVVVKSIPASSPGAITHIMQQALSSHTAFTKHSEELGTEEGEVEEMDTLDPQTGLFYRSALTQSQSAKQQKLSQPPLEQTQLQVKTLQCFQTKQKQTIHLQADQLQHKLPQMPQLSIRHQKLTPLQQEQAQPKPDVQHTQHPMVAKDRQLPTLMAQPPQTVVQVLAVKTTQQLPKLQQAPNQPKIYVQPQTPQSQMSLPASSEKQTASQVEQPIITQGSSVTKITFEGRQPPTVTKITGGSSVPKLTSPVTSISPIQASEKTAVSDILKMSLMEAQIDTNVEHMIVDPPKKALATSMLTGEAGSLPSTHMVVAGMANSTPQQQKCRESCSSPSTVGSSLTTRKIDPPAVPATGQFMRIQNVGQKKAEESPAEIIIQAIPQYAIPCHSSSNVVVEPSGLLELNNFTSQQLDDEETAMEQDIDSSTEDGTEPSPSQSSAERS
UniProt Q13428: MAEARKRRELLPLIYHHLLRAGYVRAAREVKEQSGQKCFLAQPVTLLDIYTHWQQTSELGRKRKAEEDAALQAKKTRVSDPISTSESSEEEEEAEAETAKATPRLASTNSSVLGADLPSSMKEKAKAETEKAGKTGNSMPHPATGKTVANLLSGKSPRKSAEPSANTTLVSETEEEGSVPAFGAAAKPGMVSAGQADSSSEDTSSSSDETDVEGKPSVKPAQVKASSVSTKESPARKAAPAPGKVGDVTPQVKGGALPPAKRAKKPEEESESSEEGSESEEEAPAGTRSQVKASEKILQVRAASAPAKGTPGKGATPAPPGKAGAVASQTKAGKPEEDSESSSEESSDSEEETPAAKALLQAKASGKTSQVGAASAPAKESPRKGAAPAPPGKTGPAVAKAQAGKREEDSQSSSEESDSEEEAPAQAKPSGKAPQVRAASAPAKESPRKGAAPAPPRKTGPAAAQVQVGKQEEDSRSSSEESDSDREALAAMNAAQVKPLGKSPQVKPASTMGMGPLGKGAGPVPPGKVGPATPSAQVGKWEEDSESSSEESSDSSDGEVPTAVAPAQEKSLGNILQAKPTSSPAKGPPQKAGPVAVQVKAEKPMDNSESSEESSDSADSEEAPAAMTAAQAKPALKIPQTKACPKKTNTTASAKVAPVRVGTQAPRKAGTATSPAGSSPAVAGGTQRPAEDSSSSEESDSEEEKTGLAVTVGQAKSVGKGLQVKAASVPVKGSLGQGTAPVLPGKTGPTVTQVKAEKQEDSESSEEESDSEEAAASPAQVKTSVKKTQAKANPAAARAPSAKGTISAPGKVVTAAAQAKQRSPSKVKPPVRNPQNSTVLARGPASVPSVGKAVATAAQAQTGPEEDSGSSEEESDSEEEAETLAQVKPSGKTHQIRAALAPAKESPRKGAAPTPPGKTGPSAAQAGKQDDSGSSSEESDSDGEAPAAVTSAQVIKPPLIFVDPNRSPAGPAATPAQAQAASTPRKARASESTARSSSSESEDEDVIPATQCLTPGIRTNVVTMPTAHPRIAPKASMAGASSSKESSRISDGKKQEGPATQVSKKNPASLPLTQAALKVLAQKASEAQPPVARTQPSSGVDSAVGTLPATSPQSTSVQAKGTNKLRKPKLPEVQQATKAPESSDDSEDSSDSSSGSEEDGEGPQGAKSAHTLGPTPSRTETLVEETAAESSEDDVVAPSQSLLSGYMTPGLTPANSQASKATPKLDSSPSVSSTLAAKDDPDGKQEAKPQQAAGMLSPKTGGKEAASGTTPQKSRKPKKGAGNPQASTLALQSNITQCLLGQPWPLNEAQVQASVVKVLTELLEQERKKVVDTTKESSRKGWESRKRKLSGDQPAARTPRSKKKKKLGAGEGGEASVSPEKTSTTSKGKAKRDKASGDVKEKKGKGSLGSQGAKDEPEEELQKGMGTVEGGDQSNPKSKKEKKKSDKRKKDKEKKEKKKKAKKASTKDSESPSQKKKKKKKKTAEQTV
UniProt Q9H019: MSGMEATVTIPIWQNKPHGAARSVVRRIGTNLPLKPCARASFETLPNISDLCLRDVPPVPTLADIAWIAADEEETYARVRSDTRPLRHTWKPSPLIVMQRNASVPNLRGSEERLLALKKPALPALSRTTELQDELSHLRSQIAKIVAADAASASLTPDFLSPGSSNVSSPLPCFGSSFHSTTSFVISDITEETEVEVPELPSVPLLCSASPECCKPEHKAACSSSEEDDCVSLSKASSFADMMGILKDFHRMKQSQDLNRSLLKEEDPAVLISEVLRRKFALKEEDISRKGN
UniProt P53667: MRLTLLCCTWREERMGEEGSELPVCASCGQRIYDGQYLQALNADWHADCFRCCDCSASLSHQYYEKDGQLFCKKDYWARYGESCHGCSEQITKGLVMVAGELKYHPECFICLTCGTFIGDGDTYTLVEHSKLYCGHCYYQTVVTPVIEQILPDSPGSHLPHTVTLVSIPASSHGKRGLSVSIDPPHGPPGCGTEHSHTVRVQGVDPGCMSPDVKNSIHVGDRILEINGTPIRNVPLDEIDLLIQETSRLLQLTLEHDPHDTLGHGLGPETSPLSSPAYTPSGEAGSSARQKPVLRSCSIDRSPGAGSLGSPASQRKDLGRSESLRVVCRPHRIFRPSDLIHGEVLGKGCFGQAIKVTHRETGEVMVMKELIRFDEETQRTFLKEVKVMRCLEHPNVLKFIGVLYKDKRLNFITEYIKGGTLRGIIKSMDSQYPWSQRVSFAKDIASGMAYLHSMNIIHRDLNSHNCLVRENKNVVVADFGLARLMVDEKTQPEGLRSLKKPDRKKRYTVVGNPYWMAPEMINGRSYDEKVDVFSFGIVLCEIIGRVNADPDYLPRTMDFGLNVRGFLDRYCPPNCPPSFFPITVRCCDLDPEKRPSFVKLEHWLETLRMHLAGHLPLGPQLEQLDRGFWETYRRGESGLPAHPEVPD

Target | NP40-soluble protein abundance (concentration: 1mM) | NP40-soluble protein abundance (concentration: 2mM) | NP40-soluble protein abundance (concentration: 4mM) | NP40-soluble protein abundance (concentration: 6mM) | NP40-soluble protein abundance (concentration: 8mM) | NP40-soluble protein abundance (concentration: 10mM)
E9PF32 and related entries (UniProt A2RUS2) | 1.02 ± 0.13 | 0.982 ± 0.055 | 1 ± 0.038 | 0.944 ± 0.11 | 1.006 ± 0.0091 | 0.998 ± 0.045
E9PJ55 (UniProt Q9NUJ3) | 1.08 ± 0.15 | 1.04 ± 0.15 | 1.05 ± 0.11 | 1.01 ± 0.13 | 1.03 ± 0.1 | 0.999 ± 0.12
E9PC90 and related entries (UniProt P14635) | 0.983 ± 0.12 | 1.02 ± 0.038 | 1.05 ± 0.071 | 1.06 ± 0.11 | 1.02 ± 0.054 | 1.01 ± 0.028
F6SS63 and related entries (UniProt Q8N5C8) | 0.94 ± 0.076 | 1.01 ± 0.032 | 1.04 ± 0.082 | 1.13 ± 0.082 | 1.03 ± 0.12 | 1.04 ± 0.085
F6TB26 and related entries (UniProt Q9Y2W6) | 0.967 ± 0.023 | 0.967 ± 0.021 | 0.948 ± 0.019 | 0.9912 ± 0.0029 | 0.919 ± 0.036 | 0.95 ± 0.013
F8VU90 and related entries (UniProt Q9NYL4) | 0.92 ± 0.044 | 0.837 ± 0.073 | 0.817 ± 0.014 | 0.805 ± 0.052 | 0.874 ± 0.097 | 0.845 ± 0.099
E7EVC7 and related entries (UniProt Q676U5) | 0.978 ± 0.019 | 0.986 ± 0.045 | 1.01 ± 0.031 | 1.02 ± 0.023 | 0.961 ± 0.049 | 0.965 ± 0.044
F8VSL3 and related entries (UniProt P25208) | 0.996 ± 0.065 | 0.976 ± 0.067 | 0.926 ± 0.059 | 0.994 ± 0.083 | 0.952 ± 0.1 | 0.882 ± 0.076
F5H136 and related entries (UniProt P17987) | 1.01 ± 0.024 | 0.931 ± 0.042 | 0.846 ± 0.016 | 0.877 ± 0.13 | 0.873 ± 0.061 | 0.852 ± 0.067
E7EN19 and related entries (UniProt O95819) | 0.992 ± 0.034 | 0.995 ± 0.024 | 0.999 ± 0.02 | 1.02 ± 0.021 | 1.014 ± 0.0066 | 1 ± 0.025
E9PMC9 and related entries (UniProt Q7Z589) | 1.08 ± 0.09 | 1.06 ± 0.11 | 1.13 ± 0.044 | 1.19 ± 0.22 | 1.1 ± 0.09 | 1.21 ± 0.1
E9PIC6 and related entries (UniProt P06746) | 1.09 ± 0.041 | 1.07 ± 0.013 | 1.07 ± 0.011 | 1.15 ± 0.022 | 1.13 ± 0.018 | 1.144 ± 0.0095
E9PQ56 and related entries (UniProt Q9UHX1) | 1.277 ± 0.012 | 1.27 ± 0.036 | 1.24 ± 0.017 | 1.28 ± 0.047 | 1.285 ± 0.0088 | 1.26 ± 0.034
E7ETY2 and related entries (UniProt Q13428) | 1.19 ± 0.12 | 1.17 ± 0.051 | 1.18 ± 0.062 | 1.3 ± 0.087 | 1.25 ± 0.049 | 1.23 ± 0.057
F5H0R1 and related entries (UniProt Q9H6E5) | 0.9847 ± 0.0058 | 0.9874 ± 0.0061 | 1 ± 0.03 | 0.982 ± 0.012 | 0.9619 ± 0.0025 | 0.989 ± 0.012
F8VXU5 and related entries (UniProt Q9UBQ0) | 0.954 ± 0.087 | 0.959 ± 0.071 | 0.92 ± 0.057 | 0.889 ± 0.081 | 0.929 ± 0.035 | 0.938 ± 0.086
F8VU39 and related entries (UniProt Q9UIF9) | 1.06 ± 0.039 | 1.1 ± 0.096 | 1.091 ± 0.0019 | 1.16 ± 0.088 | 1.1 ± 0.06 | 1.15 ± 0.055
F8W1A4 and related entries (UniProt P54819) | 0.952 ± 0.083 | 0.949 ± 0.029 | 0.919 ± 0.036 | 0.971 ± 0.026 | 0.917 ± 0.0099 | 0.895 ± 0.047
E7ET07 and related entries (UniProt Q9NXR8) | 1.09 ± 0.046 | 1.11 ± 0.092 | 1.11 ± 0.12 | 1.24 ± 0.11 | 1.19 ± 0.11 | 1.19 ± 0.13
E7ETZ4 and related entries (UniProt Q9Y6E2) | 0.936 ± 0.0097 | 0.9341 ± 0.0059 | 0.8943 ± 0.0045 | 0.923 ± 0.028 | 0.905 ± 0.034 | 0.879 ± 0.022
E9PM92 and related entries (UniProt O00193+E9PM92) | 0.97 ± 0.28 | 0.998 ± 0.054 | 0.971 ± 0.053 | 1.04 ± 0.2 | 0.984 ± 0.015 | 0.83 ± 0.041
E7EMW7 and related entries (UniProt O95071) | 1.17 ± 0.043 | 1.11 ± 0.066 | 1.1 ± 0.062 | 1.12 ± 0.17 | 1.12 ± 0.13 | 1.11 ± 0.11
F5GZ90 and related entries (UniProt Q9NZJ0) | 0.941 ± 0.0064 | 0.937 ± 0.017 | 0.894 ± 0.028 | 0.877 ± 0.037 | 0.863 ± 0.036 | 0.868 ± 0.036
G3V1V0 and related entries (UniProt P60660) | 0.948 ± 0.1 | 0.927 ± 0.11 | 0.914 ± 0.045 | 0.963 ± 0.16 | 0.892 ± 0.074 | 0.822 ± 0.079
E9PLD2 and related entries (UniProt Q9H019) | 1 ± 0.073 | 1 ± 0.062 | 0.955 ± 0.036 | 1.01 ± 0.093 | 0.971 ± 0.038 | 0.937 ± 0.035
E7ESG2 and related entries (UniProt Q9HAW4) | 1.03 ± 0.051 | 1.03 ± 0.078 | 1.05 ± 0.072 | 1.03 ± 0.1 | 1 ± 0.065 | 1.05 ± 0.078
E9PC47 and related entries (UniProt P53667) | 1.02 ± 0.12 | 1.05 ± 0.036 | 1.05 ± 0.049 | 0.983 ± 0.012 | 0.95513 ± 0.00065 | 0.911 ± 0.0028
G5E973 and related entries (UniProt P30203) | 1.01 ± 0.12 | 0.981 ± 0.078 | 1.04 ± 0.075 | 1.05 ± 0.14 | 1.01 ± 0.082 | 0.977 ± 0.061

Single values from the entries so far.
In NP40-soluble protein abundance (concentration: 6mM), F8VSL3 and related entries (UniProt P25208) has 0.994 ± 0.083
In NP40-soluble protein abundance (concentration: 1mM), E9PLD2 and related entries (UniProt Q9H019) has 1 ± 0.073
